From article PMC8630788
These are yes or no findings as the source states them, for the method shown. Some binding calls cover weakened binding; strength is not graded here. For some assays here: Tags and fused reporters may be left off the sequences shown.

The chains behind the UniProt entries cited, without tags or fusion partners.
UniProt P62993: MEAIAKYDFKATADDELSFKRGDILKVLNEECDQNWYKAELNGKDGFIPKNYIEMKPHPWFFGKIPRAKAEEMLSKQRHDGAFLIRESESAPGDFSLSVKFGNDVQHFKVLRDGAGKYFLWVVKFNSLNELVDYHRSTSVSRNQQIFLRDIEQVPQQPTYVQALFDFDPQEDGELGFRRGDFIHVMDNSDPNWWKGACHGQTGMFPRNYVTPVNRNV

What was measured:
[1] = target: optimized bait-PAR-Grb2, RFP-fused (UniProt P62993); assay: subcellular micropatterning (bait-prey copatterning, TIRF microscopy); live cells with bait-PAR-Grb2 micropatterns and HRas-CFP, Raf1-CFP or MEK1-GFP (Figure S2); EGF stimulation named for Raf1 only
[2] = target: optimized bait-PAR-Grb2, RFP-fused (UniProt P62993); assay: subcellular micropatterning (bait-prey copatterning, TIRF microscopy); competition in live HeLa cells: bait-PAR-Grb2-RFP and Gab1-GFP on anti-HA patterns, cyclo(YpVNFΦrpPRR) added to the cells (100 μM over time; dose-response); bait-normalized contrast set between 0 and 100%

binding [1]	binding [2]	Molecule
no binding	–	MEK1 (mitogen-activated protein kinase kinase 1), GFP-fused (from UniProt Q02750 1-393)
–	binds	Grb2-associated-binding protein 1 (Gab1), GFP-fused (protein, UniProt Q13480 1-694) MSGGEVVCSGWLRKSPPEKKLKRYAWKRRWFVLRSGRLTGDPDVLEYYKNDHAKKPIRIIDLNLCQQVDAGLTFNKKEFENSYIFDINTIDRIFYLVADSEEEMNKWVRCICDICGFNPTEEDPVKPPGSSLQAPADLPLAINTAPPSTQADSSSATLPPPYQLINVPPHLETLGIQEDPQDYLLLINCQSKKPEPTRTHADSAKSTSSETDCNDNVPSHKNPASSQSKHGMNGFFQQQMIYDSPPSRAPSASVDSSLYNLPRSYSHDVLPKVSPSSTEADGELYVFNTPSGTSSVETQMRHVSISYDIPPTPGNTYQIPRTFPEGTLGQTSKLDTIPDIPPPRPPKPHPAHDRSPVETCSIPRTASDTDSSYCIPTAGMSPSRSNTISTVDLNKLRKDASSQDCYDIPRAFPSDRSSSLEGFHNHFKVKNVLTVGSVSSEELDENYVPMNPNSPPRQHSSSFTEPIQEANYVPMTPGTFDFSSFGMQVPPPAHMGFRSSPKTPPRRPVPVADCEPPPVDRNLKPDRKVKPAPLEIKPLPEWEELQAPVRSPITRSFARDSSRFPMSPRPDSVHSTTSSSDSHDSEENYVPMNPNLSSEDPNLFGSNSLDGGSSPMIKPKGDKQVEYLDLDLDSGKSTPPRKQKSSGSGSSVADERVDYVVVDQQKTLALKSTREAWTDGRQSTESETPAKSVK
